Source: patent US20210253518A1, “KINASE INHIBITOR” (NISSAN CHEMICAL CORPORATION, priority 2018, published 2021)
Some entries share one result that the patent states for a list of compounds.

Assays:
[1] = tested on: 8 kinds of kinases (CGK2, LATS2, MSK1, p70S6K, PKACα, PKACβ, SGK2, and SGK3); experiment: MSA method, summary over 8 kinds of kinases; format: biochemical; details: at 100 nM; each of the 8 kinases
[2] = tested on: human primary epidermal keratinocyte; experiment: Cell proliferation of human epidermal keratinocyte (ATP reagent); format: cell-based; details: 10 μM; 4 days; low-adhesion plate
YAP protein = experiment: Imaging analysis of nuclear translocation in SKOV3 cells; format: cell-based, human; details: 10 μM, 4 hr, fluorescence intensity ratio 1.4 or more, relative to control group (DMSO)
Description: (§1) Compounds k-1:B-1, k-1:H-1, and k-1:J-1 were evaluated for nuclear translocation of YAP protein and TAZ protein. For the nuclear translocation, imaging analysis was performed using the human ovarian cancer cell line SKOV3 (manufactured by DS Pharma Biomedical Co., Ltd) and OperettaCLS (manufactured by PerkinElmer) described below. The compounds were added such that the final concentration of the test concentration of k-1:B-1, k-1:H-1, and k-1:J-1 was 10 μM.
(§2) Human ovarian cancer cell line SKOV3 cultured according to the protocol recommended by DS Pharma Biomedical Co., Ltd. was seeded on a 96-well plate (manufactured by PerkinElmer, CellCarrier-Ultra) at 15,000 cells/90 μL/well on the cycloolefin bottom surface, and cultured in a CO2 incubator (37° C., 5% CO2) for 1 day. After culturing, 10 μL of k-1:B-1, k-1:H-1, and k-1:J-1 solutions having a concentration of 100 μM and dissolved in DMSO was added. The cells were further cultured in a CO2 incubator at 37° C. for 4 hr. The medium was exchanged with 4% para-formaldehyde, and the cells were fixed by allowing to stand at room temperature for 10 min. The fixed cells were subjected to immunostaining with AlexaFluor® 647-labeled YAP antibody (manufactured by Cell Signaling Technology), anti-mouse TAZ (D-8) antibody (manufactured by SantaCruz), AlexaFluor® 555-labeled anti-mouse IgG antibody (manufactured by Thermo Fisher Scientific), according to the recommended protocol produced by Cell Signaling Technology, and the cell nucleus was further stained with 10 μg/mL Hoechst33342 solution.
(§3) Nine fields of view were imaged per well using a 20× objective lens of Operatta CLS. The cell nucleus region and the cytoplasm region were identified from the obtained fluorescence images by using the analysis software Harmony (manufactured by PerkinElmer), and AlexaFluor® 647 fluorescence intensity per unit area and the AlexaFluor® 555 fluorescence intensity per unit area in each region were extracted. The nuclear translocation was evaluated by calculating the ratio of the fluorescence intensity of the cell nucleus region to the fluorescence intensity of the cytoplasmic region from the extracted values. The value becomes greater than 1 as the YAP protein and TAZ protein transfer into the cell nucleus, and less than 1 when localized in the cytoplasm.
(§4) The specific compound used in the present invention was evaluated for the nuclear translocation of YAP protein and TAZ protein. For the nuclear translocation, imaging analysis was performed using the human ovarian cancer cell line SKOV3 (DS Pharma Biomedical Co., Ltd) and OperettaCLS (PerkinElmer) described below. The specific compound was added such that the final concentration of the test concentration of the compound used in the present invention was 10 μM. […]

TAZ protein = experiment: as above; format: cell-based, human; details: 10 μM, 4 hr, fluorescence intensity ratio 1.4 or more, relative to control group (DMSO)
Description: as §1, §2, §3, §4

[3] = tested on: genes at the downstream of YAP and TAZ proteins in human primary cornea epithelial cell; experiment: Gene expression downstream of YAP and TAZ (Taqman) in cornea epithelial cell; format: cell-based; details: 10 μM, 24 hr, vs control group (DMSO)
[4] = tested on: genes at the downstream of YAP and TAZ proteins in human primary epidermal keratinocyte; experiment: Gene expression downstream of YAP and TAZ (Taqman) in epidermal keratinocyte; format: cell-based; details: 10 μM, 24 hr, vs control group (DMSO); for increase in ANKRD relative expression level: relative to GAPDH

Compound	activity inhibition rate against 8 kinds of kinases [1]	increase in cell number (luminescence amount relative to control group DMSO) [2] [times]	increase in cell population with nuclear translocation of YAP protein (YAP protein) [times]	increase in cell population with nuclear translocation of TAZ protein (TAZ protein) [times]	increase in ANKRD relative expression level ([3]; relative to GAPDH) [times]	increase in CCND1 relative expression level [3] [times]	increase in CYR61 relative expression level [3] [times]	increase in ANKRD relative expression level [4] [times]	increase in CCND1 relative expression level [4] [times]	increase in CYR61 relative expression level [4] [times]
CCC(=NNC(=O)C(CC)Nc1ccccc1)c1ccc(O)c(C)c1O (centres unmarked) [k-1:H-7]	not less than 40%									
CCC(=NNC(=O)CNc1ccccc1)c1ccc(O)c(C)c1O [k-1:H-1]	not less than 40%	≥ 4	≥ 6	≥ 1.5	≥ 3	≥ 1.5	≥ 2	≥ 5	≥ 1.5	≥ 1.5
CC/C(=N\NC(=O)C(C)Nc1ccccc1)c1ccc(O)c(C)c1O (centres unmarked) [k-1:B-1]	not less than 40%	≥ 4	≥ 6	≥ 1.5		≥ 1.5	≥ 2	≥ 5	≥ 1.5	≥ 1.5
